Results as given in patent US20130202657A1, “FOAMS OR PARTICLES FOR APPLICATIONS SUCH AS DRUG DELIVERY” (BASF SE, priority 2010, published 2013).
Some of these results come from one statement about several compounds together.

Test: Solubility of APIs in PVPVA (thin layer dried on glass slide, optical microscopy)
Assay type: physicochemical
Settings: % by mass in PVPVA
Protocol: The effect of API loading on PVPVA foams was studied next. To make API-laden polymer foams, a model API was added to the polymer before foaming. Clotrimazole and cholesterol were used in this example as model APIs. PVPVA was loaded with the API at concentrations ranging from 0% by mass to 30% by mass, as described above. The solubility of APIs in PVPVA was first tested by dissolving both the API and the polymer in a solvent, then spreading a thin layer on a glass slide to dry. […] These crystals were visible under bright-field and cross-polarized optical microscopy. […] Solid solutions of clotrimazole were obtained at up to 20% loading.

Row | Compound | API loading in PVPVA giving a solid solution (transparent film)
1 | CC(C)CCC[C@@H](C)[C@H]1CC[C@H]2[C@@H]3CC=C4C[C@@H](O)CC[C@]4(C)[C@H]3CC[C@]12C [cholesterol] | up to 20%
2 | Clc1ccccc1C(c1ccccc1)(c1ccccc1)n1ccnc1 [clotrimazole] | up to 20%
